Laboratory results reported in publication PMC5192218.

Tests used:
Assay in all cases: co-IP; GFP-Trap anti-GFP beads precipitate the GFP-tagged protein (GFP-MKLP1, GFP-Anillin or GFP-MP-GAP) from lysates of transfected cells (293T, 2 μg GFP-MKLP1 and 6 μg p120 construct); p120 detected by western blot
[1] = target: T1, GFP-tagged Anillin (pEGFP-Anillin) (UniProt Q9NQW6)
T1 sequence: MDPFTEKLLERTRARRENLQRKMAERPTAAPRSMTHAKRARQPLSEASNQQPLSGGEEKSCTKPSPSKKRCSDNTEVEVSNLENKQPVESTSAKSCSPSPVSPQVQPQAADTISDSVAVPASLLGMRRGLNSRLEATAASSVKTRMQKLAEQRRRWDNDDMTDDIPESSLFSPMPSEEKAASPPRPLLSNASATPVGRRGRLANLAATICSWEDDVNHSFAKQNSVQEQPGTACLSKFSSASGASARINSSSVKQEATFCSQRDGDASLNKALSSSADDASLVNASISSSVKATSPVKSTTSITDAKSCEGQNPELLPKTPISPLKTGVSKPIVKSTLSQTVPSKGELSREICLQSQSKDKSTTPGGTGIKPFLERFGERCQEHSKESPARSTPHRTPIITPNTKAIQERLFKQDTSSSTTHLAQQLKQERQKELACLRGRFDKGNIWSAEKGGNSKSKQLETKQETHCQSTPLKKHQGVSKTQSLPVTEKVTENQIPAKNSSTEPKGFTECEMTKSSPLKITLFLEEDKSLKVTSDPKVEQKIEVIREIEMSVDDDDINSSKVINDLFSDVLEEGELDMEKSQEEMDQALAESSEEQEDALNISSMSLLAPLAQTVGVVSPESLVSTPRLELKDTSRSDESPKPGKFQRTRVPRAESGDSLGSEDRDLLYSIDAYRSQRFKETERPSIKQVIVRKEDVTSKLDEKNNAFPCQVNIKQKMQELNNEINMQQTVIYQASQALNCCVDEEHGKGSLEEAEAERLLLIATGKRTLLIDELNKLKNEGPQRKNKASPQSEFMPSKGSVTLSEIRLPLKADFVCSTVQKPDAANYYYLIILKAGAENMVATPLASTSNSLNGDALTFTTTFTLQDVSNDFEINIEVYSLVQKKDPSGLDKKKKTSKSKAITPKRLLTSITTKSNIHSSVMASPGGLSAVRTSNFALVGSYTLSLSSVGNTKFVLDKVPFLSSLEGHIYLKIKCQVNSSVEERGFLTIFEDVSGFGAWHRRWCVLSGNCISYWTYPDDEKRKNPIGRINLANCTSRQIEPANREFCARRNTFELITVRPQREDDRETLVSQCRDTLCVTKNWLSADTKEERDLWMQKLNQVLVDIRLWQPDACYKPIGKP

[2] = target: T2, GFP-tagged MKLP1 (in pEGFP-C1) (UniProt Q02241)
T2 sequence: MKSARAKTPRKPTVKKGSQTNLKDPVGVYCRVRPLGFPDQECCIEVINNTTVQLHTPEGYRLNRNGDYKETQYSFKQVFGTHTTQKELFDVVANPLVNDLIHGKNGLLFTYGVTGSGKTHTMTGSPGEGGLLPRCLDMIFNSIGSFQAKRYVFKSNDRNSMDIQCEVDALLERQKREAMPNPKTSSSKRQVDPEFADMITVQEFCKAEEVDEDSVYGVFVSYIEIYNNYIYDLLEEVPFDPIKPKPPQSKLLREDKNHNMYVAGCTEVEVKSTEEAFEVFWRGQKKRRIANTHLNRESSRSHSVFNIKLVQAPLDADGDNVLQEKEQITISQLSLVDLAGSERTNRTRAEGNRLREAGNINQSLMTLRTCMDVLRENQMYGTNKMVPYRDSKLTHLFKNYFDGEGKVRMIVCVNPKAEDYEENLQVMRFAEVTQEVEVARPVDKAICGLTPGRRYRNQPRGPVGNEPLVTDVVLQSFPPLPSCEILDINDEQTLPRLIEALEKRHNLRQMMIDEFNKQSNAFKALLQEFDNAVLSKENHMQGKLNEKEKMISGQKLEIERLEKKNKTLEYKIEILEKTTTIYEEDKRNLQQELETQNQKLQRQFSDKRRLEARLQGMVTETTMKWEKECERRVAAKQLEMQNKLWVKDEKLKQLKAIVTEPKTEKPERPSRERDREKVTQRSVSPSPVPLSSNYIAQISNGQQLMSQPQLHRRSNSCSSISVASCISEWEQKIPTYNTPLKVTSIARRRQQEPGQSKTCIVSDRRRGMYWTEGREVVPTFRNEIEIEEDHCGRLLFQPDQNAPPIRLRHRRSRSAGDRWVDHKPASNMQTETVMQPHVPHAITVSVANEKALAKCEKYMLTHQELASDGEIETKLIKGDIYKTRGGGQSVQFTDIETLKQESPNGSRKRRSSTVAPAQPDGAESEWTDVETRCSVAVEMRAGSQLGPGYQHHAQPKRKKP

[3] = target: T3, GFP-tagged MP-GAP (ARHGAP11A) (human) (UniProt Q6P4F7)
T3 sequence: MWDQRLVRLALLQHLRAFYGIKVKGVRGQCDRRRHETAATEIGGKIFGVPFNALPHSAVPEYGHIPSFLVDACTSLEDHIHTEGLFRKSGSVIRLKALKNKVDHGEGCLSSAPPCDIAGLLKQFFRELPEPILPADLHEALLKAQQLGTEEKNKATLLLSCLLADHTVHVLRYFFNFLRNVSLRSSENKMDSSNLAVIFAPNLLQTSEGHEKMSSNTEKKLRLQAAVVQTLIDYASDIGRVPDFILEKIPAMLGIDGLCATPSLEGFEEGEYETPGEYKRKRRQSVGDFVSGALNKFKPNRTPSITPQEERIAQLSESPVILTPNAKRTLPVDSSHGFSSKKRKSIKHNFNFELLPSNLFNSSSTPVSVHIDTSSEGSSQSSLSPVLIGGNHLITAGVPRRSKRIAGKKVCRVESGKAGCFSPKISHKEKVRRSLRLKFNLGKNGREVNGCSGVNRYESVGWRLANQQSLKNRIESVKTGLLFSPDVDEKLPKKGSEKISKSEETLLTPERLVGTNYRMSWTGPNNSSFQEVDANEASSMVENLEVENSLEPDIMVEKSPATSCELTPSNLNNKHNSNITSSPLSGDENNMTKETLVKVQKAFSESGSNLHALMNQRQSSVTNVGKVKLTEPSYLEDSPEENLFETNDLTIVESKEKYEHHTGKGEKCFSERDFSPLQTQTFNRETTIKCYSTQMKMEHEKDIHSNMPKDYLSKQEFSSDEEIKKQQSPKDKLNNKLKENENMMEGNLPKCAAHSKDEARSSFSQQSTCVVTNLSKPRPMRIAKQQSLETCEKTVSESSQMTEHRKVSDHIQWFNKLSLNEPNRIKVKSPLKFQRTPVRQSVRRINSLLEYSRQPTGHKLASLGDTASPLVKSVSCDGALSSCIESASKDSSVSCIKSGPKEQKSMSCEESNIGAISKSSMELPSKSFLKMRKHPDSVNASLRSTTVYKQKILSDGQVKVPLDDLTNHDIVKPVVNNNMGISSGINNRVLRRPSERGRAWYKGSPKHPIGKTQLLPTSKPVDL

| binding [2] | Substance | binding [1] | binding [3] |
| --- | --- | --- | --- |
| no binding | p120-catenin isoform 3A (RC-CMV-p120-3A) |  |  |
| no binding | p120-catenin isoform 4A (RC-CMV-p120-4A) |  |  |
| binds | p120ΔARM, truncation mutant lacking all ARM domains (RC-CMV-p120 ΔARM(1–10)) (domain or fragment) |  |  |

| Substance | binding [2] | binding [1] | binding [3] |
| --- | --- | --- | --- |
| p120-catenin isoform 1A (RC-CMV-p120-1A) | binds | binds | binds |

These are yes or no findings as the source states them, for the method shown. In cells and extracts the contact can be indirect. Binding calls can cover weak binding; strength is not graded here. Where a sequence is shown, tags or fusion partners need not be part of it.
